Test results taken from PMC1435744.
No constants are given. Whether binding was seen depends on the method and setting. In cells and extracts the contact can be indirect. A result given as binding can be weak or reduced; the word gives no strength. Where a sequence is shown, tags or fusion partners need not be part of it.

Target: Flag-tagged C-terminus portion of mr-s containing the SAM domain (mouse) (UniProt Q1RNF8)
Test: co-IP; HEK293T co-transfected with HA- and Flag-tagged constructs; 1 mg lysate precipitated with anti-Flag antibody and protein G-Sepharose, 4°C, 2 hrs, 150 mM NaCl, 1% Nonidet P-40; detected by anti-HA blot

B1: full-length mr-s, HA-tagged or Flag-tagged, expressed in HEK293T cells (protein, UniProt Q1RNF8 1-542)
chain: MPEHPRHCDFQRGNVEIGLGPGGDLLGKRLSCPCITSHCSSEKKARSKDPQATSLLPELESTMAPEDHYHQLMSALSEASSFEETQRLYHLGIPSHDLLRVRQEVATATLRGPSGLEVHLPSSTADHRRKQGLVQRREGAVPAAATSFSEREMSQPPPLLSPQNAAHITMSSHLRPPFLGMPTAVCQTPGFSFLPSAQAEMLARQQELLRKQSLARLEMSELLRQKELGSVHRPLLPAPEVALHIPEGPDELQRRGSMLVLKHSSAPLLALPPQGPPGPGPPIPPKESARSRSEKGSLGVQPSQPKETTGAGLWAQEVSEEPSKDSDGEDPETAAAREGTSTPSQVPAGGTRAEGRGLLSGSTLPPPLPLGFPCGAVSPYFHTGTMGGLFTDEETTTLEDVNKWTVDDVCNFVGGLSGCGEYARVFGEQGIDGETLPLLTEEHLLNTMGLKLGPALKIRAQVAKRLGRVFYMASFPVALPLQPPSLQAPELSPGHQPLSPATTTSPYEGTHLPTGQASPKQENGSGTIALLSGAPDPSQLLQ
binding: binds

B2: mr-s ΔSAM (amino acids 1 to 400), HA-tagged or Flag-tagged, expressed in HEK293T cells (domain or fragment, UniProt Q1RNF8 1-400)
chain: MPEHPRHCDFQRGNVEIGLGPGGDLLGKRLSCPCITSHCSSEKKARSKDPQATSLLPELESTMAPEDHYHQLMSALSEASSFEETQRLYHLGIPSHDLLRVRQEVATATLRGPSGLEVHLPSSTADHRRKQGLVQRREGAVPAAATSFSEREMSQPPPLLSPQNAAHITMSSHLRPPFLGMPTAVCQTPGFSFLPSAQAEMLARQQELLRKQSLARLEMSELLRQKELGSVHRPLLPAPEVALHIPEGPDELQRRGSMLVLKHSSAPLLALPPQGPPGPGPPIPPKESARSRSEKGSLGVQPSQPKETTGAGLWAQEVSEEPSKDSDGEDPETAAAREGTSTPSQVPAGGTRAEGRGLLSGSTLPPPLPLGFPCGAVSPYFHTGTMGGLFTDEETTTLED
binding: no binding
